Several values for one entry are separate records, joined by “and”; a condition that tells them apart may be missing. Equal values may be shown once. Some of the results follow. These are further read-outs of the screen, such as a control signal, another cell line or another target. No call is given for them. Compounds called inactive in the main read-out are mostly missing here. The note in brackets gives the kind of curve behind each potency; many fits are weak.

The record followed here is PubChem BioAssay AID2685 (National Center for Advancing Translational Sciences (NCATS), 2010).

The nature of the experiment: qHTS Assay for Lipid Storage Modulators in Drosophila S3 Cells.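 As to cell number change: cells counted by Cell Tracker Red CMTPX staining in the red channel.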 To be noted: BODIPY lipid droplet fluorescence, 18-24 h; for cell number change: measured here: cell count max response, cells fed with added oleic acid. In a few lines:
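Drosophila S3 cells loaded with oleic acid (400 uM, as added) and compounds at several concentrations; lipid droplets imaged by 488-nm laser-scanning cytometry, 500–530 nm intensity and object ratio to cell channel. Percent activity normalized to 20 uM Triacsin C.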
Background: Quantitative high-throughput screening tests each substance at several concentrations.

Setting [1] is: measured here: cell number channel AC50, cells fed with added oleic acid.
Setting [2] is: measured here: lipid fluorescence (Fed channel) AC50, cells fed with added oleic acid.

A word on the AC50: it is the concentration at which the activity in the assay is half-maximal. Higher therefore signals weaker potency. Take `Cc1cc(=O)n2[nH]c(N)c(N=Nc3ccccc3)c2n1`: the cell number change is 21.6%. Further, under setting [1], the AC50 was 6.51 µM [falling, single point]. Further, under setting [2], the AC50 was 6.51 µM [falling, single point].

Take `CN1CCC(N(C)S(=O)(=O)c2ccc(NC(=O)COc3cccc(Cl)c3)cc2)CC1`: the cell number change came out at 25%. In addition, the AC50 under setting [2] was 6.51 µM [rising, single point].

With `CCOC(=O)c1cnn(-c2cc(C)c3ccccc3n2)c1N`, the half-maximal activity concentration (AC50) reads like this: under setting [1], 0.146 µM [rising, partial curve]; under setting [2], 0.092 µM [rising, full curve, poor fit].

Consider `Cc1ccc(NC(=O)Cn2c(=O)n(CCCC(=O)NCc3ccco3)c(=O)c3ccccc32)cc1`, for which the cell number change is -5.32%. In addition, the AC50 under setting [2] was 0.58 µM [rising, full curve, poor fit]. Consider `CC(C(=O)N1CCN(C(=O)c2ccco2)CC1)N1C(=O)NC2(CCCCC2C)C1=O` (stereo not drawn), for which the cell number change is -5.6%. Besides, the AC50 under setting [1] was 6.51 µM [rising, single point]. In addition, under setting [2], the AC50 was 6.51 µM [rising, partial curve, poor fit].

Turning to `CS(=O)(=O)Cc1cccc(C(=O)NN(c2ccccc2)c2ccccc2)c1`, the cell number change turned out to be 17.8%. On to `NC1=NC(=O)/C(=C\c2ccc(-c3ccc(Cl)cc3)o2)S1`, for which the cell number change was -9.88%. Besides, under setting [2], the AC50 was 13 µM [falling, partial curve]. On to `Nc1ccc(S(=O)(=O)Nc2nc(-c3ccccc3)cc(-c3ccccc3)n2)cc1`, for which the cell number change came to 5.62%. As for `CCN1CCN(C(c2cccnc2)c2c(NC(=O)c3ccco3)sc(C)c2C)CC1` (stereo not drawn), under setting [2], the AC50 is 7.31 µM [falling, partial curve]. For `COc1cccc(CNCCSc2nnnn2C)c1`, the cell number change was -19.1%. The AC50 under setting [2] is 2.06 µM [falling, full curve, poor fit]. Turning to `N#CCCCSc1nnnn1-c1cccc(Cl)c1`, the cell number change is -9.33%. In the case of `CCN(C(=O)CSc1nnc(-c2ccc(C)cc2)n1N)c1c(N)n(Cc2ccccc2)c(=O)[nH]c1=O`, the cell number change was -18.1%. Still for that read-out and setting: for `O=C(CSc1nnc(Cc2cccs2)n1-c1ccc(Cl)cc1)NCc1ccc2c(c1)OCO2` the value was 8.04%. For the compound `CCOC(=O)c1cnc2sc3c(n2c1=O)CCCC3`, the cell number change was -30.5%. In addition, the AC50 under setting [1] is 29.1 µM [falling, single point]. Take `CCOCCOC(=O)C(C)Oc1ccc(Oc2nc(Cl)ccc2Cl)cc1` (stereo not drawn): the cell number change amounted to 67.5%. Further, the AC50 under setting [2] was 23.1 µM [rising, single point]. For `O=C1COc2ccc(C(=O)COC(=O)c3nc(Cl)ccc3Cl)cc2N1`, the cell number change is -6.4%. Moreover, under setting [2], the AC50 is 29.1 µM [falling, single point]. Turning to `Cc1ccc(Cl)cc1N1CCN(C(=O)CSc2nnc3n2C(C)(C)Cc2ccccc2-3)CC1`, the cell number change was -28.4%. Besides, under setting [2], the AC50 was 14.6 µM [falling, partial curve, poor fit].

As to `Cc1ccc([N+](=O)[O-])cc1NC(=O)c1cccs1`, the cell number change is 3.35%. Further, under setting [1], the AC50 was 0.651 µM [falling, single point]. Under setting [2], the AC50 is 0.651 µM [falling, single point].

As for `O=C(COC(=O)c1nc(Cl)ccc1Cl)c1ccc[nH]1`, the cell number change was -25%. Besides, under setting [2], the AC50 was 0.092 µM [falling, full curve, poor fit]. Consider `Cc1cc(Cl)c(S(=O)(=O)NC(C(=O)O)C(C)C)cc1OCC(=O)NC1CCCCC1` (stereo not drawn), for which the cell number change was found to be 28.7%. Turning to `C[C@]12CCC(=O)C=C1CC[C@@H]1[C@@H]2[C@@H](O)C[C@@]2(C)[C@H]1CC[C@]2(O)C(=O)COC(=O)CCC(=O)O`, the cell number change was -29.4%. The AC50 under setting [1] is 0.82 µM [falling, full curve, poor fit]. In addition, the AC50 under setting [2] was 4.11 µM [rising, single point]. As for `Cc1cccc(N2CCN(S(=O)(=O)c3ccc4c(c3)CCCN4C(=O)C3CCC3)CC2)c1C`, the cell number change came to 25.7%. Besides, the half-maximal activity concentration (AC50) under setting [2] is 0.731 µM [rising, single point]. Consider `O=C(COC(=O)c1cccc([N+](=O)[O-])c1)Nc1ccc(Cl)cn1`, for which the cell number change was found to be 13.1%. Consider `Cc1cccc(-n2c(C)nc3cc(C(=O)NCc4ccc5c(c4)OCO5)ccc32)c1`, for which the cell number change worked out at 0.199%. For the same compound, the AC50 under setting [2] is 20.6 µM [rising, single point].

Regarding `O=C(Cn1[nH]c(=O)c2ccccc2c1=O)N1CCN(S(=O)(=O)c2ccc(Cl)cc2)CC1`, the cell number change turned out to be 19.2%. Moreover, under setting [1], the AC50 is 0.00461 µM [falling, full curve, poor fit].

As to `Cc1nc(NC(=O)c2ccc(Br)o2)sc1C`, the cell number change was -6.31%. The AC50 under setting [2] was 16.4 µM [rising, partial curve]. On to `O=C(c1ccc(Cl)c(S(=O)(=O)N2CCOCC2)c1)N(Cc1ccco1)Cc1cccs1`, for which the cell number change was 68.5%. In addition, the AC50 under setting [1] is 4.61 µM [rising, partial curve].

Regarding `CC1=C(C(=O)Nc2ccc(CC(=O)NCc3ccc(OC(C)C)cc3)cc2)SCCO1`, the cell number change is -16.8%. Moreover, the AC50 under setting [1] was 7.31 µM [falling, single point]. Consider `COc1ccc2cc3c(N)nn(C(=O)Cc4c[nH]c5ccccc45)c3nc2c1`, for which the cell number change is -47.9%. Moreover, the AC50 under setting [1] was 29.1 µM [falling, single point]. For the same compound, the AC50 under setting [2] is 1.16 µM [rising, partial curve, poor fit]. As to `O=C(c1ccco1)N(c1ccccn1)c1ccccn1`, the cell number change was -33.3%. For the same compound, under setting [1], the half-maximal activity concentration (AC50) was 3.66 µM [falling, full curve]. In addition, the AC50 under setting [2] was 14.6 µM [falling, partial curve, poor fit]. Regarding `CCOc1ccc(C(=O)NCC(=O)N2CCc3ccccc3C2)cc1OCC`, the cell number change was -0.0415%. Further, under setting [2], the AC50 is 0.058 µM [falling, full curve, poor fit]. With `Cc1nn(-c2nc3ccccc3n2Cc2ccccc2)c2c1C(=O)CC(C)(C)C2`, the cell number change was -16.5%. Further, under setting [2], the concentration at half-maximal activity (AC50) is 7.31 µM [rising, single point].

Regarding `CCCc1nnc(N2C(=O)c3cccc4cccc(c34)C2=O)s1`, the AC50 under setting [2] is 23.1 µM [rising, partial curve].

In the case of `Cc1onc(-c2ccccc2)c1C(=O)N/N=C/c1cc2c(cc1Br)OCO2`, the cell number change stood at 38.6%. Under setting [1], the AC50 is 3.26 µM [rising, full curve]. Further, under setting [2], the AC50 was 1.16 µM [rising, full curve]. On to `CC(C)N1C/C(=C/c2ccsc2)C(=O)/C(=C/c2ccsc2)C1`, for which the AC50 under setting [2] is 13 µM [falling, partial curve]. Consider `CCNc1nc(SCCOc2ccccc2)nc(N(C)C)n1`, for which the cell number change turned out to be 313%. Moreover, the half-maximal activity concentration (AC50) under setting [1] was 7.31 µM [rising, partial curve]. For the same compound, the AC50 under setting [2] is 14.6 µM [rising, partial curve]. `CC(=O)Nc1ccc(C(=O)CSc2nc3ccc(C)cc3[nH]2)cc1`: the cell number change was -50%. For the same compound, under setting [1], the AC50 was 25.9 µM [falling, single point]. For the same compound, under setting [2], the AC50 is 29.1 µM [rising, single point]. Take `CCOC(=O)c1nnn(-c2nonc2N)c1-c1ccc(Br)cc1`: the cell number change is -24.6%. For the same compound, the AC50 under setting [2] was 32.6 µM [falling, single point].

Consider `Cc1[nH]c2ccc(-c3n[nH]c(=S)n3C)cc2c1C`, for which the cell number change is -14.3%. The AC50 under setting [2] is 0.092 µM [rising, full curve, poor fit]. As to `CC(C)(C)c1ccc(-c2n[nH]c(=S)n2Cc2ccccc2)cc1`, the cell number change was -12.5%.

On to `O=C(CSC1=Nc2ccccc2C2=NC(CC(=O)NCc3ccco3)C(=O)N12)NCc1ccco1` (stereo not drawn), for which the AC50 under setting [2] is 0.58 µM [rising, single point]. In the case of `CC(=O)c1cccc(N2C(=NC(=O)C3CCCCC3)SC3CS(=O)(=O)CC32)c1` (stereo not drawn), the cell number change is -19.8%. Also, the AC50 under setting [2] is 0.461 µM [falling, full curve]. For `Cc1sc2nc(SCC(=O)N(C)c3ccccc3)n(C)c(=O)c2c1C`, the cell number change was -20%. Moreover, the AC50 under setting [2] was 0.146 µM [falling, full curve]. Turning to `COC(=O)c1cc(S(=O)(=O)N2CCN(c3ccc(C(C)=O)cc3)CC2)cn1C`, the AC50 under setting [2] was 29.1 µM [rising, single point].

`COC(=O)Cc1ccc(N(Cc2ccccc2F)S(=O)(=O)c2ccc(Br)cc2)cc1`: the cell number change amounted to 0.989%. The AC50 under setting [2] was 6.51 µM [rising, single point].

Regarding `COc1ccc(/C=C(\NC(=O)c2cccs2)C(=O)Nc2ccccc2C)cc1OC`, the cell number change was -73.8%. Besides, the AC50 under setting [1] is 1.03 µM [falling, full curve]. Under setting [2], the AC50 is 0.731 µM [falling, full curve]. As for `CC(=O)c1c(C)[nH]c(C(=O)OCc2cccc(C)c2)c1C`, the cell number change amounted to 0.855%. Also, the AC50 under setting [1] is 0.00411 µM [rising, full curve, poor fit].

As to `COc1ccc(-c2cc(-c3ccccc3)nc(SCC(=O)Nc3ncc(C)s3)c2C#N)cc1`, the cell number change was determined as 21.2%. In addition, the AC50 under setting [1] is 0.259 µM [rising, partial curve, poor fit]. For the same compound, under setting [2], the AC50 is 0.13 µM [rising, full curve]. For `Cc1ccc(Cn2nnc3c(=O)[nH]c(C4CCN(S(=O)(=O)/C=C/c5ccccc5)CC4)nc32)cc1`, the cell number change amounted to 5.65%.

In the case of `Cc1ccc(S(=O)(=O)N2CCCCC2)cc1C(=O)NCCCN1CCOCC1`, the cell number change worked out at 16.2%. As to `O=C(Nc1cccc(Cl)c1)Nc1cccc(C(=O)O)c1`, the cell number change was -40.3%. Besides, the AC50 under setting [1] is 29.1 µM [falling, single point]. Further, the AC50 under setting [2] is 9.2 µM [falling, single point]. For the compound `CC(C)(C)NC[C@H](O)COc1nsnc1N1CCOCC1`, the cell number change was -33.1% and 17.5%. Under setting [1], the AC50 is 32.6 µM [falling, single point]. Further, the AC50 under setting [2] is 29.1 µM [falling, single point] and 651 nM [falling, full curve, poor fit]. In the case of `Cc1ccc(/C=C2\SC(=S)N(CCC(=O)N3CCCCC3)C2=O)cc1`, the cell number change was -17.9%. In the case of `Cc1cc(C)nc(N2CCN(c3ccc(F)cc3)CC2)n1`, the cell number change worked out at 30.2%. Besides, the AC50 under setting [2] is 29.1 µM [rising, single point]. Turning to `CCOc1cccc2sc(N(CCCN(C)C)C(=O)c3ccc(S(=O)(=O)N(C)CC4CCCO4)cc3)nc12` (stereo not drawn), the cell number change was -39.9%. Also, under setting [1], the concentration at half-maximal activity (AC50) was 18.4 µM [falling, single point]. Also, the AC50 under setting [2] was 0.58 µM [rising, single point].

For the compound `CC(C)c1ccc(/C=N/n2c(COc3ccccc3)n[nH]c2=S)cc1`, the cell number change was -9.72%. Moreover, under setting [2], the AC50 is 13 µM [falling, partial curve, poor fit]. On to `COC(=O)c1ccc(NC(=O)COc2ccc(S(=O)(=O)N3CCCCC3)cc2)cc1`, for which the cell number change is -31.4%. Further, the AC50 under setting [1] is 0.517 µM [falling, full curve]. Also, the AC50 under setting [2] was 0.146 µM [falling, full curve].
